Data taken from article PMC10036040.
Results are given in words; binding and its absence hold for the method and conditions named. Binding seen in cells or lysates may run through a third protein. Some entries that bind do so weakly or less than the wild type.

By UniProt entry, the sequences of proteins in these tests, tags left out.
UniProt P08670: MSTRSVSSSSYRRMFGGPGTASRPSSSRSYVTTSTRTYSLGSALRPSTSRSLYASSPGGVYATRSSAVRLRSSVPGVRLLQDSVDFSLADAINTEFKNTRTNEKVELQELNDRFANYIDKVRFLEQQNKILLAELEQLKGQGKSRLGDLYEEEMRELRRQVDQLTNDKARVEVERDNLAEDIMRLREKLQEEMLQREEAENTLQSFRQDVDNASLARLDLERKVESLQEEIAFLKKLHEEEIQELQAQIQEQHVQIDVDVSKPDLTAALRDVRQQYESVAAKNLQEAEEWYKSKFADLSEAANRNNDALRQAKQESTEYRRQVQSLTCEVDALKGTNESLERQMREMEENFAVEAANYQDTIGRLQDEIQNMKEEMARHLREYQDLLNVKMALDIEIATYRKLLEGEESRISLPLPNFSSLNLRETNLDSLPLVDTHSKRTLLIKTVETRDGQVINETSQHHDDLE

Biological target: T1, Ubiquitin carboxyl-terminal hydrolase L3 (UCHL3) (human (endogenous in Hep3B and Huh7)) (UniProt P15374)
T1 sequence: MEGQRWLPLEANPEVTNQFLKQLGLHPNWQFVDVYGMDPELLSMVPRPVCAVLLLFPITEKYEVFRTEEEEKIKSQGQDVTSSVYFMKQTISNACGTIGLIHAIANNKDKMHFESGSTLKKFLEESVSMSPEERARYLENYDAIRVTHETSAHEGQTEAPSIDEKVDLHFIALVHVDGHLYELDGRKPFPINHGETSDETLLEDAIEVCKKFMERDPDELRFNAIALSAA
Assay: co-IP; Hep3B and Huh7 cell lysates (Cell lysis buffer for Western and IP); anti-UCHL3 antibody or IgG control on magnetic beads; Western blot for Vimentin

Vimentin (from UniProt P08670 1-466)
binding: binds
